Results: PMC11063907
These are yes or no findings as the source states them, for the method shown. In cells and extracts the contact can be indirect. A yes stands for co-enrichment or nearness to the bait. Other partners may have been found. For some of these results: A no says only that the protein was not detected with the bait. Where a sequence is shown, tags or fusion partners need not be part of it.

Chains of the proteins cited; added tags and fusions are not shown.
UniProt F8VPN4: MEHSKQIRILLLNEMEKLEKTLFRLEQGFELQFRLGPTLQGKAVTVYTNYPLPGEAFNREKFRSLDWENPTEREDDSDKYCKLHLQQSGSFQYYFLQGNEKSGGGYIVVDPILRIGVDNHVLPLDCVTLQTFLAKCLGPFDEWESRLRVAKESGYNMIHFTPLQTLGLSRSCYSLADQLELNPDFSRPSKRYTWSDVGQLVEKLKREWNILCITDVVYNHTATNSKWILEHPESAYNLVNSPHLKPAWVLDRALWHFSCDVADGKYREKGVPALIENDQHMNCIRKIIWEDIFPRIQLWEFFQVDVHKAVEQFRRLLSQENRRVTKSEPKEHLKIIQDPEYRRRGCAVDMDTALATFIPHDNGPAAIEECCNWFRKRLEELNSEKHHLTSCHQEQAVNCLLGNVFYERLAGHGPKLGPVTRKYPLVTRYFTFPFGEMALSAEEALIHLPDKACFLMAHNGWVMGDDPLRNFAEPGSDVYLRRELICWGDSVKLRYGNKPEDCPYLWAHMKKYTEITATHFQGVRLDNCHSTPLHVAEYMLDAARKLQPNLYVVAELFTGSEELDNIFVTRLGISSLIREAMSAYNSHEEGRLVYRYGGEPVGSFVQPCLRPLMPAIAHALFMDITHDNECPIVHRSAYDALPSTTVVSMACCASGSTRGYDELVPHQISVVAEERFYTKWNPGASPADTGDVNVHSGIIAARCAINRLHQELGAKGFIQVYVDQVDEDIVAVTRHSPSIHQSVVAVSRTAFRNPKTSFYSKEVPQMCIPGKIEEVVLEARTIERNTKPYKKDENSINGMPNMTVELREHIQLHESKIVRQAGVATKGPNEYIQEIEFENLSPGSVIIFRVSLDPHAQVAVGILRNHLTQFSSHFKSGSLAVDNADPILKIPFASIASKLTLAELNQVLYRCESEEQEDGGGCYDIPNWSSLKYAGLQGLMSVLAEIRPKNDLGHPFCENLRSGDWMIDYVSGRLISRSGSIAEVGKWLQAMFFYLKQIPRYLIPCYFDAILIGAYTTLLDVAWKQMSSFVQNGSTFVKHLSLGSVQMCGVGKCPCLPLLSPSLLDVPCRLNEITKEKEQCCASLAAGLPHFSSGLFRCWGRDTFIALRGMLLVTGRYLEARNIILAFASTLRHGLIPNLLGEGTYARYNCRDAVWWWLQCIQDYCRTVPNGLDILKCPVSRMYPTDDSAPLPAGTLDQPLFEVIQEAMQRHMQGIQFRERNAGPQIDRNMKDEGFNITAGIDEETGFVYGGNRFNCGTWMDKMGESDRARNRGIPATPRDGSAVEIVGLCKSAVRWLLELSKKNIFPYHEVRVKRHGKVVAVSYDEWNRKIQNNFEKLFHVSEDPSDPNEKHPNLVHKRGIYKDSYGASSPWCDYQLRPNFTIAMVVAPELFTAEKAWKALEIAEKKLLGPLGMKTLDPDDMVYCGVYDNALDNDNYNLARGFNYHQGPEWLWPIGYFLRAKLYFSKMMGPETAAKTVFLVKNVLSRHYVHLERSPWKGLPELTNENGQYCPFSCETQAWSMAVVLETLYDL

T1: malin-myc (mouse malin with a C-terminal 2x c-myc tag, expressed from the endogenous gene) (mouse) (UniProt Q8BR37)
T1 sequence: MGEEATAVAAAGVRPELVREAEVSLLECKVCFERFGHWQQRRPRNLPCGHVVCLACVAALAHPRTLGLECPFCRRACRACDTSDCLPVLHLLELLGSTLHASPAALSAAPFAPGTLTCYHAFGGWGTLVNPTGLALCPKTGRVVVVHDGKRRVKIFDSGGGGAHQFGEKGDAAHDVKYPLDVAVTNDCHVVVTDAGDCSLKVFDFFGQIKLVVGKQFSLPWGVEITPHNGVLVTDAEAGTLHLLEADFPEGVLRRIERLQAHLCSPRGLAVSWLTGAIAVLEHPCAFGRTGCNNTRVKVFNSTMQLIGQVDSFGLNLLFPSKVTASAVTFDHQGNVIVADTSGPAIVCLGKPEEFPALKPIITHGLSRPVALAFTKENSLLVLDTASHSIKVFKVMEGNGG


What was measured:
[1] = target: T1, malin-myc (mouse malin with a C-terminal 2x c-myc tag, expressed from the endogenous gene) (mouse); test: condition: only in laforin knockout mice (malin-myc/LKO); affinity purification with mass spectrometry; anti-c-myc immunoprecipitates from skeletal muscle of 4-month-old malin-myc/LKO mice (laforin knockout), compared with malin-myc and LKO mice, LC-MS/MS
[2] = target: T1, malin-myc (mouse malin with a C-terminal 2x c-myc tag, expressed from the endogenous gene) (mouse); test: affinity purification with mass spectrometry; anti-c-myc immunoprecipitates from skeletal muscle of 4-month-old malin-myc/LKO mice (laforin knockout), compared with malin-myc and LKO mice, LC-MS/MS
[3] = target: T1, malin-myc (mouse malin with a C-terminal 2x c-myc tag, expressed from the endogenous gene) (mouse); test: affinity purification with mass spectrometry; anti-c-myc immunoprecipitates from the low-speed supernatant of skeletal muscle of 4-month-old malin-myc mice, WT (or LKO, LCS) mice as control, digested on beads, LC-MS/MS; also with α-amylase during the IP
[4] = target: T1, malin-myc (mouse malin with a C-terminal 2x c-myc tag, expressed from the endogenous gene) (mouse); test: affinity purification with mass spectrometry; anti-c-myc immunoprecipitates from the low-speed supernatant of brain of malin-myc mice, WT mice as control, LC-MS/MS
[5] = target: T1, malin-myc (mouse malin with a C-terminal 2x c-myc tag, expressed from the endogenous gene) (mouse); test: affinity purification with mass spectrometry; anti-c-myc immunoprecipitates from skeletal muscle of 4-month-old malin-myc/LCS mice (laforin C265S in the genome), LCS mice as control, LC-MS/MS

| binding [1] | binding [2] | Molecule | further results |
| --- | --- | --- | --- |
| no binding | binds weakly | glycogen debranching enzyme (AGL) (from UniProt F8VPN4 1-1532) |  |
|  |  | glycogen branching enzyme (GBE) (enzyme, UniProt Q9D6Y9 1-702) MAAPAAPAAGETGPDARLEAALADVPELARLLEIDPYLKPFAADFQRRYKKFSQVLHDIGENEGGIDKFSRGYESFGIHRCSDGGIYCKEWAPGAEGVFLTGEFSGWNPFSHPYKKLEYGKWELYIPPKQNKSPLIPHGSKLKVVITSKSGEILYRISPWAKYVVRENNNVNYDWIHWAPEDPYKFKHSRPKKPRSLRIYESHVGISSHEGKIASYKHFTSNVLPRIKDLGYNCIQLMAIMEHAYYASFGYQITSFFAASSRYGTPEELKELVDTAHSMGIVVLLDVVHSHASKNSEDGLNMFDGTDSCYFHSGPRGTHDLWDSRLFIYSSWEVLRFLLSNIRWWLEEYCFDGFRFDGVTSMLYHHHGMGQGFSGDYNEYFGLQVDEDALIYLMLANHLAHTLYPDSITIAEDVSGMPALCSPTSQGGGGFDYRLAMAIPDKWIQLLKEFKDEDWNMGNIVYTLTNRRYLEKCVAYAESHDQALVGDKTLAFWLMDAEMYTNMSVLAPFTPVIDRGIQLHKMIRLITHGLGGEGYLNFMGNEFGHPEWLDFPRKGNNESYHYARRQFNLTDDDLLRYKFLNNFDRDMNRLEERCGWLSAPQAYVSEKHEANKTITFERAGLLFIFNFHPSKSYTDYRVGTATPGKFKIVLDSDAAEYGGHQRLDHNTNYFAEAFEHNGRPYSLLVYIPSRVALILQNVDLQN | binding [3]: no binding |
|  |  | laforin (enzyme, UniProt Q9WUA5 1-330) MLFRFGVVVPPAVAGARQELLLAGSRPELGRWEPHGAVRLRPAGTAAGAAALALQEPGLWLAEVELEAYEEAGGAEPGRVDTFWYKFLQREPGGELHWEGNGPHHDRCCTYNEDNLVDGVYCLPVGHWIEATGHTNEMKHTTDFYFNIAGHQAMHYSRILPNIWLGSCPRQLEHVTIKLKHELGVTAVMNFQTEWDIIQNSSGCNRYPEPMTPDTMMKLYKEEGLSYIWMPTPDMSTEGRVQMLPQAVCLLHALLENGHTVYVHCNAGVGRSTAAVCGWLHYVIGWNLRKVQYFIMAKRPAVYIDEDALAQAQQDFSQKFGKVHSSICAL | binding [4]: binds |
|  |  | LaforinC265S (catalytically inactive laforin, expressed from the endogenous gene) (enzyme, UniProt Q9WUA5 1-330) MLFRFGVVVPPAVAGARQELLLAGSRPELGRWEPHGAVRLRPAGTAAGAAALALQEPGLWLAEVELEAYEEAGGAEPGRVDTFWYKFLQREPGGELHWEGNGPHHDRCCTYNEDNLVDGVYCLPVGHWIEATGHTNEMKHTTDFYFNIAGHQAMHYSRILPNIWLGSCPRQLEHVTIKLKHELGVTAVMNFQTEWDIIQNSSGCNRYPEPMTPDTMMKLYKEEGLSYIWMPTPDMSTEGRVQMLPQAVCLLHALLENGHTVYVHSNAGVGRSTAAVCGWLHYVIGWNLRKVQYFIMAKRPAVYIDEDALAQAQQDFSQKFGKVHSSICAL | binding [5]: binds |
| no binding | binds weakly | glycogenin (GYG1) (enzyme, UniProt Q9R062 1-333) MTDQAFVTLTTNDAYAKGALVLGSSLKQHRTTRRMVVLTSPQVSDSMRKVLETVFDDVIMVDVLDSGDSAHLTLMKRPELGITLTKLHCWSLTQYSKCVFMDADTLVLSNIDDLFEREELSAAPDPGWPDCFNSGVFVYQPSIETYNQLLHLASEQGSFDGGDQGLLNTYFSGWATTDITKHLPFVYNLSSISIYSYLPAFKAFGKNAKVVHFLGRTKPWNYTYNPQTKSVNCDSQDPTVSHPEFLNLWWDTFTTNVLPLLQHHGLVKDASSYLMMEHVSGALSDLSFGEAPAAPQPSMSSEERKERWEQGQADYMGADSFDNIKRKLDTYLQ |  |
| no binding | binds weakly | Ppp1r3a (protein, UniProt Q99MR9 1-1089) MEPAEEPGQISKDNFLEVPNLSDSVCEDEEVKATFKPGFSPQPSRRGSGSSEDMYLDTPTSASRRVSFADSLGFSLVSVKEFDCWELPSVSTDFDLSGDVFHTDEYVLSPLFDLPSSKEKLMEQLQVQKAVLESAEHLPGSSMKGIIRVLNISFEKLVYVRMSLDDWQTHYDILAEYVPNSCDGETDQFSFKISLVPPYQKEGGKVEFCIRYETSAGTFWSNNNGTNYILVCQKKRKEPEPVKPLEEAPSRQIKGCLKVKSRSKEEPLLAPEENKFETLKFTESYIPTIICSHEDKDDLGANHPNVDDINKKHDEHNGKELDLMINQRLITSQDEKNTFATDTVNFTNKAEGSEKKQAYHEINTDLFMGPLSPSLSAESSLKRDFYHSRSSSPGNEYGHPHSEEIISDMGEKGPSLGDTSSDELMQLELCSKEDLDDNANPANGSGRVCSSFDQRMACGLKNNEAGIKKTGIQDYKYSHGDSTKLEESNASSRDDYAKVDNKKEKQTCLGVNENPSKNFQSVFQTQEGHMGYPKISTEGDKANNQDLTSLLSKDITANTWAVTVDPCPSTNAKRSWREVGSGSNLEPGTSDLSSPRNFSPLTDDHLFQADRENSDSSNPENQNMNTRHRKKWNVLETQSETSETESDIAKHTKEQAEYKDMWEKTDNSRNLKATPTEHLFTCRETECYGLSSLADHGITEKAQAVTAYIIKTTLESTPESASARGKAIIAKLPQETAGNDRPIEVKETAFDPHEGRKDDSHYSLCHGDTAGVIHDNDFERESHLDICNLRVDEMKKEKTTSTCFPQKTYDKEKHGIGSVTSIDEPSQVITGNQKATSKLDLHLGVLPTDRAIFQANADLELLQELSRRTDFNAVPSAFNSDTASASRDSSQVYRHCSKKSVPSYGEEKAVTNTTLQSIPTKSEYNWHPESEVLGHAMSKPEDVFKSSEIMKSGSGGERGGGPILQQKEGSLENSQGPMFFTNEPLENLDEASSENEGLMHSGQSQCYLGDKGLVSSASATVSTQELEAQGRESLLSISTNSKIPYFLLFLIFLATVYYYDLMIGLAFYLFSLYWLYWEGGRQRESVKKK |  |
|  |  | protein targeting to glycogen (PTG) (protein, UniProt Q7TMB3 1-317) MSCTRMIHVLDPRPLTSSVMPVDMAMRICLAHSPPLKSFLGPYNGFQRRNFVNKLKPLKPCLSVKQEAKSQSEWKSPHNQAKKRVVFADSKGLSLTAIHVFSDLPEEPAWDLQFDLLDLNDISSSLKLHEEKNLVFDFPQPSTDYLSFRDRFQKNFVCLENCSLQDRTVTGTVKVKNVSFEKKVQVRITFDTWKTYTDVDCVYMKNVYSSSDSDTFSFAIDLPRVIPTEEKIEFCISYHANGRIFWDNNEGQNYRIVHVQWKPDGVQTQVAPKDCAFQQGPPKTEIEPTVFGSPRLASGLFPEWQSWGRVENLTSYR | binding [3]: no binding |
